PubChem BioAssay AID1259285, Sanger Institute – 2017

Purpose: 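Kinase knock-downs that reduce colorectal cancer cell viability or act with drugs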 (primary screen)
System: human HCC56 colorectal cancer cells
Reagents: siRNA pool against human genes
Challenge: DMSO vehicle, or anchor drug BYL719 at 1 µM, cetuximab at 5 µg/ml, or trametinib at 10 nM
Detection: 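Replicate-averaged viability relative to non-targeting siRNA, expressed as a robust z-score from controls, plus a synergy score for each of three anchor drugs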
Direction: viability robust z-score, no drug: higher = more viable cells, weaker knock-down effect
Call rule: 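Essential when the drug-free viability robust z-score falls below -3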
Calls: active = essential without drug; inactive = no change without drug
The whole screen tested 794 reagents; below is a random part of them. 20 of them (2.5%) were called active. 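Calls rest on the drug-free arm alone and ignore synergy scores; viability ratios seem to be capped at 1.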 A number with no mark means an inactive call. Further read-outs or replicates are left out here. No sequences are given here. The record does not give: the amount of reagent, the time to read-out.

Silencing of HSPB8 (heat shock protein family B (small) member 8) came out at: viability robust z-score, no drug 0.458.
MED12 (mediator complex subunit 12) gave viability robust z-score, no drug 0.458.
Depletion of CPNE3 (copine 3) gave: viability robust z-score, no drug 0.458.
Against TCF7L2 (transcription factor 7 like 2), the entry reads viability robust z-score, no drug 0.458.
Silencing of BPTF (bromodomain PHD finger transcription factor) gave: viability robust z-score, no drug -2.11.
Against ELF3 (E74 like ETS transcription factor 3), the entry reads viability robust z-score, no drug 0.458.
With knock-down of COMMD3 (COMM domain containing 3), the screen gave viability robust z-score, no drug 0.458.
After knock-down of WEE1 (WEE1 G2 checkpoint kinase) the results were viability robust z-score, no drug -6.17 (active).
Against PSTK (phosphoseryl-tRNA kinase), the values are viability robust z-score, no drug 0.458.
Silencing of CDK15 (cyclin dependent kinase 15) came out at: viability robust z-score, no drug 0.458.
Against CDKL5 (cyclin dependent kinase like 5), the values are viability robust z-score, no drug 0.458.
With knock-down of DSTYK (dual serine/threonine and tyrosine protein kinase), the screen gave viability robust z-score, no drug 0.458.
Knock-down of FXN (frataxin) came out at: viability robust z-score, no drug 0.458.
Knock-down of PHKA1 (phosphorylase kinase regulatory subunit alpha 1) came out at: viability robust z-score, no drug 0.458.
After knock-down of HK3 (hexokinase 3), the screen gave viability robust z-score, no drug 0.44.
Silencing of BMAL1 (basic helix-loop-helix ARNT like 1) came out at: viability robust z-score, no drug -1.17.
With knock-down of LIMK1 (LIM domain kinase 1), the record shows viability robust z-score, no drug 0.458.
MAGI2 scored viability robust z-score, no drug 0.458.
For TPD52L3 (TPD52 like 3) the deposit lists viability robust z-score, no drug 0.458.
Against NUCKS1, the entry reads viability robust z-score, no drug 0.458.
With knock-down of TSSK3 (testis specific serine kinase 3) the results were viability robust z-score, no drug 0.458.
STKLD1 (serine/threonine kinase like domain containing 1) showed viability robust z-score, no drug -1.87.
CALM2 (calmodulin 2) scored viability robust z-score, no drug 0.0857.
Silencing of PDK3 (pyruvate dehydrogenase kinase 3) resulted in: viability robust z-score, no drug 0.149.
AURKB (aurora kinase B) showed viability robust z-score, no drug 0.458.
With knock-down of MUSK (muscle associated receptor tyrosine kinase), the screen gave viability robust z-score, no drug -1.65.
Depletion of PRKAG1 (protein kinase AMP-activated non-catalytic subunit gamma 1) gave: viability robust z-score, no drug 0.458.
After knock-down of LTK (leukocyte receptor tyrosine kinase), the record shows viability robust z-score, no drug 0.458.

Already shown: 3 of the entries above.
TCF7L2 (transcription factor 7 like 2) — viability robust z-score, no drug = 0.458
BPTF (bromodomain PHD finger transcription factor) — viability robust z-score, no drug = -2.11
ELF3 (E74 like ETS transcription factor 3) — viability robust z-score, no drug = 0.458
